Literature values, collected in US6852845B1, “Method of identifying toxic agents using NSAID-induced differential gene expression in liver” (Curagen Corporation, priority 1999, dated 2005).

Test system: liver
Conditions: risk class assigned to each NSAID (low, very low, overdose risk)

Question: Which “Hepatotoxicity Risk of NSAIDs: Risk” value does the source give for COc1ccc2cc([C@H](C)C(=O)O)ccc2c1 [Naproxen] here?
Answer: Very Low Risk
